Here are results for one substance from paper PMC3093366, “A Component of the Xanthomonadaceae Type IV Secretion System Combines a VirB7 Motif with a N0 Domain Found in Outer Membrane Transport Proteins” (PLoS Pathogens, 2011).

These are yes or no findings as the source states them, for the method shown.

The assay has as its target VirB7_(XAC2622_51–134) (Xanthomonas citri subsp. citri strain 306). The experiment in a line: cross-linking; 0.01% (v/v) glutaraldehyde, 20 min, protein at 27 to 720 µM, 16% Tricine SDS-PAGE; both purified.

In the case of “VirB7_(XAC2622_51–134) (from UniProt A0AAI7ZGD2 51-134) (domain or fragment)”, the binding result was “no binding (tested: 720 µM)”.
